We go through two molecules from publication PMC3266853.

For assay [1], the target named is human Kif27 motor domain, Kif27 1-341 (human) (UniProt Q86VH2). Kind of assay: SEC; analytical gel filtration, Superose 12 10/300 GL; 50 mM PIPES pH 7.0, 250 mM NaCl, 2 mM MgCl2, 1 mM DTT; flow rate 1 ml/min, 250 ul injected; column calibrated with proteins of known mass; both purified. (In general: SEC sorts molecules by how far they enter the pores of the column.)

The target of assay [2] is human Kif7 motor domain, Kif7 8-347 (human) (UniProt Q2M1P5). Described as above.

No constants are given. Whether binding was seen depends on the method and setting.

B1: human Kif27 motor domain, Kif27 1-341 (domain or fragment, UniProt Q86VH2 1-341)
chain: MEEIPVKVAVRIRPLLCKEALHNHQVCVRVIPNSQQVIIGRDRVFTFDFVFGKNSTQDEVYNTCIKPLVLSLIEGYNATVFAYGQTGSGKTYTIGGGHIASVVEGQKGIIPRAIQEIFQSISEHPSIDFNVKVSYIEVYKEDLRDLLELETSMKDLHIREDEKGNTVIVGAKECHVESAGEVMSLLEMGNAARHTGTTQMNEHSSRSHAIFTISICQVHKNMEAAEDGSWYSPRHIVSKFHFVDLAGSERVTKTGNTGERFKESIQINSGLLALGNVISALGDPRRKSSHIPYRDAKITRLLKDSLGGSAKTVMITCVSPSSSNFDESLNSLKYANRARNI
As for B1, the binding result in assay [1] is given as “no binding”.

B2: human Kif7 motor domain, Kif7 8-347 (domain or fragment, UniProt Q2M1P5 8-347)
chain: LPGAEEAPVRVALRVRPLLPKELLHGHQSCLQVEPGLGRVTLGRDRHFGFHVVLAEDAGQEAVYQACVQPLLEAFFEGFNATVFAYGQTGSGKTYTMGEASVASLLEDEQGIVPRAMAEAFKLIDENDLLDCLVHVSYLEVYKEEFRDLLEVGTASRDIQLREDERGNVVLCGVKEVDVEGLDEVLSLLEMGNAARHTGATHLNHLSSRSHTVFTVTLEQRGRAPSRLPRPAPGQLLVSKFHFVDLAGSERVLKTGSTGERLKESIQINSSLLALGNVISALGDPQRRGSHIPYRDSKITRILKDSLGGNAKTVMIACVSPSSSDFDETLNTLNYASRAQ
Consider B2, for which, in assay [2], the binding entry was “no binding”.
